Data: PubChem BioAssay AID1919017 (Molecular Pharmacology Branch, DTP, NCI, 2023)
Values joined by “and” are separate entries in the source; they are usually repeats but may differ in a detail not shown here. Identical values can stand only once. The source gives many values for each of these; only a part stands here.

Test system: SW1271 complex spheroids with HUVEC/MSC, growth, % test/control
Experiment: Anticancer human tumor SW1271 cell line growth inhibition [AhR];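 also: spheroids exposed to agents for 7 days before readout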
Details: hits give low values; active = viability on the fitted dose curve at most 10% of control; inactive = the rest
Excerpt: Multicellular complex tumor spheroid response to aryl hydrocarbon receptor antagonists in combination with a variety of drugs and investigational agents in selected tumor cell lines
The current study was undertaken to assess response to aryl hydrocarbon receptor antagonists in combination with standard-of-care drugs and investigational agents in solid tumor complex spheroid models. Complex spheroids include a stromal component modeled by human endothelial cells (HUVEC) and fibroblasts modeled by human mesenchymal stem cells (MSCs). The concentration ranges selected for each drug and investigational agent were based upon clinically achievable concentrations if the clinical Cmax of the agent was known.
Compounds. The drugs and investigational agents: BAY 2416964 (NSC825713), GNF351 (NSC835774), CH-223191 (NSC835775), CPI-455 (NSC825282), aza-TdCyd (NSC777586), decitabine (NSC127716), belinostat (NSC758774), entinostat (NSC756642), pevonedistat (NSC761192), tazemetostat (NSC777109), talazoparib (NSC765396), olaparib (NSC753686), selinexor (NSC780203), nedisertib (M3814, NSC802822), bortezomib (NSC756655), venetoclax (NSC766270), doxorubicin (NSC123127), elimusertib (BAY189344, NSC800525), ceralasertib (AZD6738, NSC777638), TAK-243 (NSC785004), alisertib (NSC759677), etoposide (NSC141540), topotecan (NSC609699), eribulin (NSC707389), gemcitabine (NSC613327), carboplatin (NSC241240), cisplatin (NSC119875), and SN-38 (NSC673596) were obtained from the National Cancer Institute (NCI) Developmental Therapeutics Program Chemical Repository (32). The FDA-approved anticancer drug set is available from the Developmental Therapeutics Program at https://dtp.cancer.gov/organization/dscb/obtaining/available plates.htm. […] The stock solutions were prepared in dimethyl sulfoxide (DMSO, Sigma-Aldrich, St. Louis, MO, cat. D2650), except for the platinum compounds which were prepared in saline (Quality Biological, Gaithersburg, MD, cat. 114-055-101), at 800-fold the tested concentration and stored at -70 degrees C prior to their use. All drugs and investigational agents were tested over a range starting from a high concentration at or near the clinical Cmax and decreasing in half-log increments. If the clinical Cmax for an agent had not been determined, the highest concentration tested was 10 microM (Table 1).
Cell Culture. All cells were maintained in an incubator at 37 degrees C and 5% CO2 with 95% humidity. The PDC lines were cultured according to standard operating procedures established by the NCI PDMR (https://pdmr.cancer.gov). Briefly, all PDCs were thawed and cultured in Matrigel-coated flasks prepared with a working solution of 1X Ham's F-12 nutrient mix, without supplementation (Invitrogen, Waltham, MA, cat. 11765054), 100 U/mL penicillin-streptomycin (Invitrogen, cat. 15140122), and 2.5% Matrigel (Corning Inc., Corning, NY, cat. 354248) for the first three passages. All PDCs were cultured in complete DMEM/F-12 media containing advanced DMEM/F-12 (Invitrogen, cat. 12634028), 4.9% defined fetal bovine serum, heat inactivated (HyClone Laboratories Inc., Logan, UT, cat. SH30070.03HI), 389 ng/mL hydrocortisone (Sigma-Aldrich, cat. H4001), 9.7 ng/mL human EGF recombinant protein (Invitrogen, cat. PHG0313), 23.4 microg/mL adenine (Sigma-Aldrich, cat. A2786), 97.3 U/mL penicillin-streptomycin (Invitrogen, cat. 15140122), 1.9 mM L-glutamine (Invitrogen, cat. 25030081), and 9.7 microM Y-27632 dihydrochloride (Tocris Bioscience, Bristol, United Kingdom, cat. 1254). The PDCs were cultured in complete DMEM/F12 media without 10 microM Y-27632 dihydrochloride for at least two passages prior to the screen. The established cell lines NCI-H1341 and […] were cultured in DMEM/F-12, HEPES (Invitrogen, cat. 11330032), 5% defined fetal bovine serum (HyClone Laboratories Inc., cat. SH30070.03), ITS premix universal culture supplement [insulin (5 microg/mL), transferrin (5 microg/mL), and selenious acid (5 ng/mL)] […]

Measured: viability, T/C

CC(CO)NC(=O)c1cc(-c2ccc(Cl)cc2)nn(-c2cnn(C)c2)c1=O (stereo not given)
inactive: compound 0.316 µM 76.1% and 68% and 99% | compound 1 µM 80.8% [middle of 4 runs] | compound 10 µM 75.6% [middle of 5 runs]

Cc1ccccc1N=Nc1ccc(NC(=O)c2ccnn2C)c(C)c1
inactive: compound 0.316 µM 97.5% [middle of 4 runs] | compound 1 µM 111% and 95% and 99.9% | compound 10 µM 98.9% [middle of 4 runs]

Cc1cncc(-c2nc(NCCc3c[nH]c4ccccc34)c3ncn(C(C)C)c3n2)c1
inactive: compound 0.1 µM 99.1% [middle of 4 runs] | compound 1 µM 92.5% and 91.1% and 90.6% | compound 3.16 µM 82% and 75.4% and 93.6% | compound 10 µM 49.8% [middle of 5 runs]
